Laboratory results as given in paper PMC11596155, “When Chirality Makes the Difference: The Case of Novel Enantiopure N-Heterocyclic Carbene–Gold and –Silver Complexes” (Molecules, 2024).

Test system: MCF-10A cells
Experiment: MTT assay, cytotoxicity on normal mammary epithelial cells MCF-10A
Assay type: cell-based, human
Protocol: All cell lines used for the reported studies were purchased from the American Type Culture Collection (ATCC, Manassas, VA, USA). Human breast cancer cells MCF-7 and MDA-MB-231 were maintained in Dulbecco’s Modified Eagle Medium/Nutrient Mixture F12 Ham (DMEM/F12) supplemented with 5% fetal bovine serum (FBS), 1% L-glutamine and 100 units/mL of penicillin/streptomycin. Human mammary epithelial cells MCF-10A were cultured in DMEM/F12 medium, supplemented with 5% horse serum (HS), 100 units/mL of penicillin/streptomycin, […], 0.02 µg/mL human epidermal growth factor (EGF), 10 µg/mL insulin and […] [34]. The murine macrophages RAW 264.7 were grown in Dulbecco’s Modified Eagle’s Medium (DMEM) high glucose (4.5 g/L), added with 10% fetal bovine serum (FBS), 1% L-glutamine and 100 units/mL of penicillin/streptomycin. Cells were maintained at 37 °C, in a humidified atmosphere containing 5% CO2.
Cell viability was determined using the 3-(4,5-dimethylthiazol-2-y1)-2,5-diphenyltetrazolium bromide assay (MTT, Sigma-Aldrich, Milan, Italy), as in [35]. Cells were treated for 72 h (anticancer activity) or 24 h (anti-inflammatory activity) at different concentrations and the IC50 values were obtained using GraphPad Prism 9 software (GraphPad Software, La Jolla, CA, USA).

Compound | IC50 MCF-10A fold higher than IC50 MCF-7 (selectivity normal vs MCF-7 cells) | IC50 MCF-10A fold higher than IC50 MDA-MB-231 (selectivity normal vs MDA-MB-231 cells) [fold] | IC50 MCF-10A fold higher than those of the breast cancer cells (selectivity normal vs breast cancer cells (MCF-7, MDA-MB-231)) [fold]
CN1C(Cl)=C(Cl)N(C[C@H](O)c2ccccc2)[CH]1[Au-][Cl] (stereo partly drawn) [(R)-AuL2, (4,5-dichloro-1-((R)-2-hydroxy-2-phenylethyl)-3-methyl-2,3-dihydro-1H-imidazol-2-yl)gold(I) chloride] | about 19 fold | ~38 | 
CN1C(Cl)=C(Cl)N(C[C@@H](O)c2ccccc2)[CH]1[Au-][Cl] (stereo partly drawn) [(S)-AuL2, (4,5-dichloro-1-((S)-2-hydroxy-2-phenylethyl)-3-methyl-2,3-dihydro-1H-imidazol-2-yl)gold(I) chloride] |  |  | 1.5
